Drawing on the supplement of paper PMC10849652, this text covers log2 fold change for 16 targets.

By UniProt entry, the sequences of proteins in these tests, tags left out. Where a name states a change or a piece, a line headed by the entry shows the natural chain unless it says otherwise.
UniProt P53778: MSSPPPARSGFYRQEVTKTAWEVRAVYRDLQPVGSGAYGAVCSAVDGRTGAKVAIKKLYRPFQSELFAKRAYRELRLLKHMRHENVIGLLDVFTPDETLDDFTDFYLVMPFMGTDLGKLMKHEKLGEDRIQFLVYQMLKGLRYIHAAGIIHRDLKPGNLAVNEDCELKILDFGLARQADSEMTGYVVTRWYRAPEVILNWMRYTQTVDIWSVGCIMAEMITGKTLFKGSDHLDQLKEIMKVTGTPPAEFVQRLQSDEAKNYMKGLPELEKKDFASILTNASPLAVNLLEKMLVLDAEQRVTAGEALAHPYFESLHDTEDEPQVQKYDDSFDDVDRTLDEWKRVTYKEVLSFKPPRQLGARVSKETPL
UniProt Q9Y5V3: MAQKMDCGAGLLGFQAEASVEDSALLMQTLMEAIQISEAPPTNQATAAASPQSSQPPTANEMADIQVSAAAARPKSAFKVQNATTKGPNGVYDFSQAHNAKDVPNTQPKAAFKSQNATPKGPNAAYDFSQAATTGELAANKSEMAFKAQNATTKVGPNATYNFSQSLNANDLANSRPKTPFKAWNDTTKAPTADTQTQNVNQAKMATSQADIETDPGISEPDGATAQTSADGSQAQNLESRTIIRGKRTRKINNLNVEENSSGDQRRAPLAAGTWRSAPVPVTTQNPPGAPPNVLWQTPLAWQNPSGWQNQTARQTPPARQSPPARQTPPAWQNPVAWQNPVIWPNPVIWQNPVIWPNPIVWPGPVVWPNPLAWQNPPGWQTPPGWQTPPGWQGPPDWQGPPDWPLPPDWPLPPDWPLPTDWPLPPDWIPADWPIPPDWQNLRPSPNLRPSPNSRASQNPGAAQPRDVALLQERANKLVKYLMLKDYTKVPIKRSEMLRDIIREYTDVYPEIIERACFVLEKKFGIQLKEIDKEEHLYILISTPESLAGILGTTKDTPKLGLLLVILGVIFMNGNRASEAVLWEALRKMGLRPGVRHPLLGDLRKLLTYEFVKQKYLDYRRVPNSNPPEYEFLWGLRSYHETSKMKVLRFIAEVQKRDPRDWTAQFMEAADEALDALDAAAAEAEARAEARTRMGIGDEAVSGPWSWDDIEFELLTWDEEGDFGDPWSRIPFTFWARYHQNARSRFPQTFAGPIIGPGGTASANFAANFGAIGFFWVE
UniProt Q13257, whole entry, looked up: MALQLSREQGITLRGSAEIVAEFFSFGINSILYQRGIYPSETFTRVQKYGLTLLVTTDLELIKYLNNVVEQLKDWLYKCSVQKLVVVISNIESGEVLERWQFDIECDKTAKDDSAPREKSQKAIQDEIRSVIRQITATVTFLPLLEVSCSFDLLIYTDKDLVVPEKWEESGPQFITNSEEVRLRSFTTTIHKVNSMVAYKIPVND
UniProt O95819: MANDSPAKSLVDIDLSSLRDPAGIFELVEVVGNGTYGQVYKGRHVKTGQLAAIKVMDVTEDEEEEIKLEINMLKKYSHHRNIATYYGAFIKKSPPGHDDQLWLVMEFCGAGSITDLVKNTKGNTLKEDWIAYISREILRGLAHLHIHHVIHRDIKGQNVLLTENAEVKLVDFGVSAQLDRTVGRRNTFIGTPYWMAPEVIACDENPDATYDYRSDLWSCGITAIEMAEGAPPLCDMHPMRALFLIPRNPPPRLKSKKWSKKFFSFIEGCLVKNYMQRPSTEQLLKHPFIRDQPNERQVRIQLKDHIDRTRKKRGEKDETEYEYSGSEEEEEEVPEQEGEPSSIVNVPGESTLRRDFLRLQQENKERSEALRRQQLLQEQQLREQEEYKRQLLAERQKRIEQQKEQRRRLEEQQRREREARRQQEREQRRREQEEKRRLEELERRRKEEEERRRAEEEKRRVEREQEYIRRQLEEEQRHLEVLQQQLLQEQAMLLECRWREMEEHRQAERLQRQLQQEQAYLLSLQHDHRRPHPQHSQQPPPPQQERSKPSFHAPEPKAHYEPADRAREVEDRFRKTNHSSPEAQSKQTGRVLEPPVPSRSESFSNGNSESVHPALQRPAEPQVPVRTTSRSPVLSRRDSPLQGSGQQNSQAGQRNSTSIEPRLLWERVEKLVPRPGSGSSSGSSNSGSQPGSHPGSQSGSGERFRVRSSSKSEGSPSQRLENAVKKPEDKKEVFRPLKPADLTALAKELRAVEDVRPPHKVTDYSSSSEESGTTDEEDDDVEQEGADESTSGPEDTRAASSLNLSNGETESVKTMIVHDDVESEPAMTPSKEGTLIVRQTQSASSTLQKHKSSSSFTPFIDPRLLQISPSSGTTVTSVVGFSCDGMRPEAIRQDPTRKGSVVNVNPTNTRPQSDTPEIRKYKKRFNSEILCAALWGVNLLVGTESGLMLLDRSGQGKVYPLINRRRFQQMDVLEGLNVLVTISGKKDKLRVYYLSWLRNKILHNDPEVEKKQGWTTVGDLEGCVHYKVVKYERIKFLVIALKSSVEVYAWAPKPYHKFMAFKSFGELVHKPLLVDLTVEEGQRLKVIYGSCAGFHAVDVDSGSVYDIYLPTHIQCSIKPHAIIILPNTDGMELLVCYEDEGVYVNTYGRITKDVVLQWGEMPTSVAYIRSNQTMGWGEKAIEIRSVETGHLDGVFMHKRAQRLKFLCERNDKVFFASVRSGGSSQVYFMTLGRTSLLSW
UniProt Q86V48: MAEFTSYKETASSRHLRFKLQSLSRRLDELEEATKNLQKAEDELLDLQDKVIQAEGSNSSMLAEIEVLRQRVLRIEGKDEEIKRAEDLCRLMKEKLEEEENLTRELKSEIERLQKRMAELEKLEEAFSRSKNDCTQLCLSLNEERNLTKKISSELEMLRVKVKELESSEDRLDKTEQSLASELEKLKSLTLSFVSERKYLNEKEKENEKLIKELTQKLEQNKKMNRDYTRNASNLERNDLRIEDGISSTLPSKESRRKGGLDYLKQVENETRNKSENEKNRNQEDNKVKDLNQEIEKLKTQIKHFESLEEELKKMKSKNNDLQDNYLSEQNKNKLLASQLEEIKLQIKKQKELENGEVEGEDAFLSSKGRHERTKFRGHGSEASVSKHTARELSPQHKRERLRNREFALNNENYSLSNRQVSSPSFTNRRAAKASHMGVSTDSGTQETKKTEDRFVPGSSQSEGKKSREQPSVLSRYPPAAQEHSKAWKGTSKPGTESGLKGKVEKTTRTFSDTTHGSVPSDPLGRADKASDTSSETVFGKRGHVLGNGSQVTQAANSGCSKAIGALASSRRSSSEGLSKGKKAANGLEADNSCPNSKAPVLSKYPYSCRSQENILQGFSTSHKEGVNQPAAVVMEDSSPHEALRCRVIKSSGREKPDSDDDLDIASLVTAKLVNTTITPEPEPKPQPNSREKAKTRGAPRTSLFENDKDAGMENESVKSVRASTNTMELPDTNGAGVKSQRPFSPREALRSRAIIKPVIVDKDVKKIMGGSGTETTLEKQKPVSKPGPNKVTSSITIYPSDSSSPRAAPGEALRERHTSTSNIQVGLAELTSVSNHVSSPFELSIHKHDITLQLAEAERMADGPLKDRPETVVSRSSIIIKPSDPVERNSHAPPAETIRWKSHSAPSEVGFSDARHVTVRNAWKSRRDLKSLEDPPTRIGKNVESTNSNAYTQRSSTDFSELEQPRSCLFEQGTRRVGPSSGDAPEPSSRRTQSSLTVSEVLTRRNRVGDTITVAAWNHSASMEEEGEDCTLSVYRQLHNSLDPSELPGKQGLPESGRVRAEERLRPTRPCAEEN
UniProt Q8WWC4: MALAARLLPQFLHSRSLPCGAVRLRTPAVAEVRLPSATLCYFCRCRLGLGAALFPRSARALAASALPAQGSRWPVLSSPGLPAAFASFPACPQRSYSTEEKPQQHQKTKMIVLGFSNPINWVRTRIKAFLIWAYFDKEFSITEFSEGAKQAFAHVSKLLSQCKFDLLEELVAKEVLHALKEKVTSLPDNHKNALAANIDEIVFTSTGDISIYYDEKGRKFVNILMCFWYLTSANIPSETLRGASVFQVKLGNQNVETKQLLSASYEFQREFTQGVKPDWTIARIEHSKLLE
UniProt Q14766: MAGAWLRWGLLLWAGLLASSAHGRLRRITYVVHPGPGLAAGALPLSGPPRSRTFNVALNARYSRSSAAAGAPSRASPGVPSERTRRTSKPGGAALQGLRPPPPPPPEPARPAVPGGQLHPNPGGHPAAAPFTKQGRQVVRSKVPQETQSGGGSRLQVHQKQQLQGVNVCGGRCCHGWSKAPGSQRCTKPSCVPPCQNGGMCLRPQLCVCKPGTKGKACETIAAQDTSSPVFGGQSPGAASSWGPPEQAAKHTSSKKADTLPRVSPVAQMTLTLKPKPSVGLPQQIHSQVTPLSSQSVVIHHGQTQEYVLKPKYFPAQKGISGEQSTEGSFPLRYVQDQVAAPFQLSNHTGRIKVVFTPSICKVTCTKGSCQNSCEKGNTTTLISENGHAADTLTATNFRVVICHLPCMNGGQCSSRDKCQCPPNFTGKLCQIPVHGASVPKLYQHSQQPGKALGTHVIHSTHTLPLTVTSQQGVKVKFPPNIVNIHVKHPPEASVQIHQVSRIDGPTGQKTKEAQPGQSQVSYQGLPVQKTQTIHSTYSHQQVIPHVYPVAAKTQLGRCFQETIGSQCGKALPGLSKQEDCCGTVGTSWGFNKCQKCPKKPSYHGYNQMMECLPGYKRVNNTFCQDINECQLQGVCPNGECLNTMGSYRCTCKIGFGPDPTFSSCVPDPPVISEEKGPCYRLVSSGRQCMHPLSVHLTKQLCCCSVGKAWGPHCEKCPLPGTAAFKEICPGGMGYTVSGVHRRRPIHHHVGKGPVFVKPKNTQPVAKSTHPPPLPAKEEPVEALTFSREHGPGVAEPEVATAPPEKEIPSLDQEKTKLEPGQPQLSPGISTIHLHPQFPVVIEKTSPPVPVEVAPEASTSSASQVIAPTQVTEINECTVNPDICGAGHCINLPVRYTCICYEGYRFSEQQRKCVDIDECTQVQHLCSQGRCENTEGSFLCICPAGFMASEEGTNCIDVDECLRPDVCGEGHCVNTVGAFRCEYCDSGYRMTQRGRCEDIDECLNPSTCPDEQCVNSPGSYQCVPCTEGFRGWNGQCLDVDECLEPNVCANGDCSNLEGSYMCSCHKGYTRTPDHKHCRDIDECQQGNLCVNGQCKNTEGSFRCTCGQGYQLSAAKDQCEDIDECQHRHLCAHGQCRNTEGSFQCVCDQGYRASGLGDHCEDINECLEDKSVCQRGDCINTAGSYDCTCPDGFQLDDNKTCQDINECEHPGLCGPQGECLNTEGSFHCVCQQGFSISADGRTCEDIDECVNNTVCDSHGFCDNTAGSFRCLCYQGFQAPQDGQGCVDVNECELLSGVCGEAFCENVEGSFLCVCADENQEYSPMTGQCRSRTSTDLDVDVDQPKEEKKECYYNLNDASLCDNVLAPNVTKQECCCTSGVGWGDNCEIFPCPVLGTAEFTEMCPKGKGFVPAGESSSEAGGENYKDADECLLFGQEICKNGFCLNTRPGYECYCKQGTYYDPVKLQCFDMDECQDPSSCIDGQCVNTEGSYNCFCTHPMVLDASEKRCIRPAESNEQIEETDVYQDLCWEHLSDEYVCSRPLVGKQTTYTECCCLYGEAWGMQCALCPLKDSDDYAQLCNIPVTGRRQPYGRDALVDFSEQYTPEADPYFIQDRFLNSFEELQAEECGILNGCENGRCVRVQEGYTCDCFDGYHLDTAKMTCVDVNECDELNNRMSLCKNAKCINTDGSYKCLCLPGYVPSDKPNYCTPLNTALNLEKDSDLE
UniProt P43362: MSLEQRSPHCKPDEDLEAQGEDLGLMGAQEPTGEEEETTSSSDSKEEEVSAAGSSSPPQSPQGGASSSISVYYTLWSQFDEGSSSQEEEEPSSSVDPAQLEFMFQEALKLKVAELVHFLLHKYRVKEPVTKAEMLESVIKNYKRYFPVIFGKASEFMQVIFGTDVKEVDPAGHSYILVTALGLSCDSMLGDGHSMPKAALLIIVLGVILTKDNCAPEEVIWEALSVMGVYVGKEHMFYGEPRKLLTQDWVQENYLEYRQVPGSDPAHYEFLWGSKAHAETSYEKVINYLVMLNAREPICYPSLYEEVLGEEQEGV
UniProt O43318: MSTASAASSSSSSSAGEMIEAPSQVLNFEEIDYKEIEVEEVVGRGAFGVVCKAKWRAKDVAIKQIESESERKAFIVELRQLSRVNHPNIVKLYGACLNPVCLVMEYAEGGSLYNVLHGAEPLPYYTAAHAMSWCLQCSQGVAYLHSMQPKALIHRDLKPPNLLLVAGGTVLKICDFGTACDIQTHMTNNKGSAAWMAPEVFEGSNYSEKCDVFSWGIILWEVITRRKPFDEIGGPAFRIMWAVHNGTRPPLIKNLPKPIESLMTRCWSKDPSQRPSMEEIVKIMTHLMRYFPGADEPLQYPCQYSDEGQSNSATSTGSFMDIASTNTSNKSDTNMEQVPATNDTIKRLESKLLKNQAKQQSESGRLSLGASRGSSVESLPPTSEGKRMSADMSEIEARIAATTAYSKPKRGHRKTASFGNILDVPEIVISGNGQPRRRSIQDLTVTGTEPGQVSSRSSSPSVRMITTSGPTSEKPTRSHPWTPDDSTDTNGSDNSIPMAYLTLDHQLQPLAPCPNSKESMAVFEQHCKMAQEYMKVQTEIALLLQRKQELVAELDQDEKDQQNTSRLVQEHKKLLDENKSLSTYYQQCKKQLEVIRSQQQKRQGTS

Some of the results follow.

Common to all, as to assay: log2 fold change, soluble protein after heating vs DMSO (PISA); higher = thermal stabilisation; K562 cells, 10 uM, 30 min; active = over 0.2 and 3.5 SD of the protein, either way, in both replicates (recomputed)
Compound in test [1]: CN1CCN(CCOc2cc(OC3CCOCC3)c3c(Nc4c(Cl)ccc5c4OCO5)ncnc3c2)CC1 [saracatinib]
The method, boiled down:
(§1)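 Soluble protein was quantified by TMTpro 16plex LC-MS/MS after channel sums were equalised. It was obtained as the supernatant after 21,000xg for 90 min from pooled aliquots of K562 cells (2×10^6 cells/mL, 10 μM compound, 30 min) heated for 3 min across 48°C-58°C and extracted in PBS with 0.5% NP-40 at 4°C. Thermal stability values are relative to control samples and come from duplicates. They are given as log2 fold changes.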

Compound in test [2]: CN1CCN(c2nc(C3=C(c4c[nH]c5ccccc45)C(=O)NC3=O)c3ccccc3n2)CC1 [sotrastaurin]
The method, boiled down: as §1

Compound in test [3]: CN1CCc2c(c3ccccc3n2Cc2ccc(C(=O)NO)cc2)C1 [Tubastatin A]
The method, boiled down: as §1

Compound in test [4]: CNC(=O)C1=CC=CC=C1NC2=NC(=NC=C2Cl)NC3=C(C=C(C=C3)N4CCOCC4)OC
The method, boiled down:
as §1

Compound in test [5]: CNC(=O)c1ccc(Nc2ncc(C(F)(F)F)c(NCc3nccnc3N(C)S(C)(=O)=O)n2)cc1 [defactinib]
The method, boiled down: as §1

Compound in test [6]: CNCc1ccc(-c2[nH]c3cc(F)cc4c3c2CCNC4=O)cc1 [rucaparib]
The method in brief:
as §1

Compound in test [7]: CNc1nc(-c2ccc3c(N)n[nH]c3c2)cc(N2C[C@@H](C(=O)NC3CCCCC3)CC[C@H]2C)n1
The method, boiled down:
as §1

Compound in test [8]: COC(=O)N[C@@H](C)CNc1nccc(-c2cn(C(C)C)nc2-c2cc(Cl)cc(NS(C)(=O)=O)c2F)n1 [encorafenib]
The method in brief: as §1

Compound in test [9]: COC(=O)[C@H](CCSC)NC(=O)C1=C(C=C(C=C1)NC[C@H](CS)N)C2=CC=CC=C2
The method in brief:
as §1

Compound in test [10]: CN1CC[C@H](c2c(O)cc(O)c3c(=O)cc(-c4ccccc4Cl)oc23)[C@H](O)C1 [alvocidib]
The method, boiled down: as §1

Take MAP4 (UniProt E7EVA0): the log2 fold change in test [1] was inactive: 0.03; in test [2] it was inactive: -0.015; in test [3], inactive: 0.041; in [4] it was inactive: -0.059; in test [5] it was inactive: 0.099; in test [6] it was inactive: 0.209. In addition, the values for the log2 fold change in [7], in test [8] and in test [9] were inactive: 0.043, inactive: 0.017 and inactive: 0.032, respectively.
Turning to MAPK12 (UniProt P53778), the log2 fold change was inactive: 0.119 in [1]; inactive: -0.037 in test [3]; inactive: 0.112 in test [4]; inactive: -0.06 in [5]; inactive: 0.101 in [6]; inactive: -0.074 in [7]. Moreover, the log2 fold change in test [8] is inactive: 0.017; in test [9], inactive: 0.059.
On to MAGED1 isoform 2 (UniProt Q9Y5V3), for which the log2 fold change in test [1] was inactive: -0.073; in [2] it was inactive: -0.196; in test [4] it was inactive: 0.015; in test [5], inactive: 0.036; in [7] it was inactive: 0.117; in test [9], inactive: 0.197.
Regarding MAD2L1 (UniProt Q13257), the log2 fold change in [1] was inactive: 0.037; in [2], inactive: -0.056; in test [3], inactive: 0.01; in test [4], inactive: 0.05; in test [5], inactive: -0.112; in test [6], inactive: -0.058. Further, the log2 fold change in [7] was inactive: -0.046; in test [8], inactive: -0.007; in test [9] it was inactive: -0.04.
As to MAP4K4 isoform 3 (UniProt O95819), the log2 fold change in test [1] was inactive: -0.054; in test [3], inactive: -0.002; in test [4], inactive: -0.051; in test [5], inactive: -0.067; in test [6], inactive: -0.004; in test [7], inactive: -0.037. For the same target, the log2 fold change is inactive: 0.026 in test [8] and inactive: 0.018 in [9].
LTN1 isoform 3 (UniProt O94822): the log2 fold change was inactive: -0.016 in test [1]; inactive: -0.114 in test [2]; inactive: 0.196 in test [3]; inactive: 0.01 in test [4]; inactive: -0.114 in test [5]; inactive: 0.158 in test [6]. Besides, the log2 fold change in test [7] is inactive: -0.012; in test [8], inactive: 0.047; in test [9], inactive: -0.057.
On to LUZP1 (UniProt Q86V48), for which the log2 fold change in test [1] was inactive: 0.075; in test [2], inactive: -0.088; in test [3], inactive: 0.13; in test [4], inactive: -0.022; in [5], inactive: -0.498; in [7], inactive: 0.002. Besides, in [9], the log2 fold change was inactive: -0.209.
In the case of MAPK9 (UniProt P45984), the log2 fold change is inactive: -0.118 in test [1]; inactive: 0.046 in [2]; inactive: -0.013 in [3]; active: 0.328 in test [4]; inactive: 0.003 in test [5]; inactive: -0.02 in test [6]. For the same target, the log2 fold change was inactive: 0 in test [7], inactive: 0.018 in test [8] and inactive: 0.029 in test [9].
In the case of LTO1 (UniProt Q8WV07), the log2 fold change in test [1] was inactive: 0.071; in [2], inactive: -0.003; in test [3] it was inactive: -0.288; in test [4] it was inactive: 0.01; in [5], inactive: 0.051; in [6] it was inactive: 0.03. Moreover, the log2 fold change in [7] is inactive: 0.073; in test [8], inactive: -0.016; in test [9], active: -0.314.
For the target MAP4 (UniProt P27816), the log2 fold change in [1] was inactive: 0.017; in test [2] it was inactive: 0.019; in [3], inactive: -0.029; in test [4] it was inactive: -0.014; in test [5], inactive: 0.016; in test [6] it was inactive: 0.009. Further, the log2 fold change in test [7] is inactive: -0.029; in test [8], inactive: -0.001; in test [9] it was inactive: 0.031.
For MAN2B2 (UniProt Q9Y2E5), the log2 fold change in test [1] is inactive: -0.015; in test [2], inactive: -0.018; in test [3], inactive: 0.105; in test [4], inactive: 0.035; in test [5], inactive: -0.009; in test [6], inactive: -0.158. In addition, the results for the log2 fold change in test [7], in [8] and in test [9] were inactive: 0.007, inactive: 0.044 and inactive: -0.04, respectively.
Turning to LYPLA2 (UniProt O95372), the log2 fold change in [1] was inactive: -0.063; in test [2] it was inactive: -0.039; in test [3] it was inactive: 0.018; in [4] it was inactive: 0.007; in test [5], inactive: -0.09; in test [6], inactive: -0.041. For the same target, the values for the log2 fold change in test [7], in [8] and in test [9] were inactive: -0.01, inactive: -0.031 and inactive: 0.087, respectively.
Take MAIP1 (UniProt Q8WWC4): the log2 fold change in test [1] is inactive: 0.03; in [2], inactive: 0.06; in test [3], inactive: 0.028; in [4], inactive: 0.002; in [5], inactive: -0.054; in [6], inactive: -0.039. The log2 fold change in test [7] was inactive: -0.04; in test [8] it was inactive: 0.048; in test [9] it was inactive: 0.008.
Take LTBP1 isoform 4 (UniProt Q14766): the log2 fold change in test [1] is inactive: 0.15; in test [10], inactive: 0.011; in [3], inactive: 0.216; in test [4], inactive: -0.093; in test [5], inactive: 0.015; in [7], inactive: 0.136. Further, in test [9], the log2 fold change is inactive: 0.08.
In the case of MAGEA9 (UniProt P43362), the log2 fold change in [1] is inactive: 0.041; in test [2], inactive: -0.037; in test [3] it was inactive: -0.038; in [4], inactive: -0.001; in test [5], inactive: -0.175; in test [6], inactive: -0.153. Moreover, the log2 fold change is inactive: 0.015 in test [7], inactive: 0.039 in test [8] and inactive: -0.082 in test [9].
For MAP3K7 (UniProt O43318), the log2 fold change in test [1] is inactive: -0.07; in [2], inactive: -0.146; in test [3], inactive: 0.054; in [4], inactive: 0.023; in test [5], inactive: -0.023; in test [6], inactive: 0.099. Besides, the log2 fold change in [7] was inactive: -0.035; in test [8], inactive: 0.1; in [9], inactive: -0.011.
